Test results: patent US20050013914A1, “Method of sustaining aroma and use thereof” (priority 2001, published 2005)

Assay: Adsorption of aromatic substances on CTS crystalline anhydrate (Example C-3)
Type: physicochemical
Details: aromatic substance adsorbed per 1 g of CTS crystalline anhydrate
Procedure: The following explains the experimental method in detail. […] The amount of the adsorbed aromatic substances was calculated by measuring the weight of the resulting powders and subtracting their starting powder weight (4 g).

Amount of Adsorbed Substance: 0.46 g
SMILES: CC(C)CC(=O)O [Isovaleric Acid]
